# Results are given in words; binding and its absence hold for the method and conditions named. In cells and extracts the contact can be indirect. Binding can be weak; no strength is given. Where a sequence is shown, tags or fusion partners need not be part of it.
# Biological target: T1, GFP-tagged full-length CD24 (human) (UniProt P25063)
# T1 sequence: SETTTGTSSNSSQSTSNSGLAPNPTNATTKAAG
# Assay: co-IP; HEK293T cells overexpressing GFP-tagged full-length CD24 and Flag-tagged RCC2 domains; IP with anti-GFP antibody, blot with anti-FLAG antibody
row,Substance,binding
1,Flag-tagged RCC2 C-terminal domain (domain or fragment),binds
2,Flag-tagged RCC2 N-terminal domain (domain or fragment),binds
